Results are given in words; binding and its absence hold for the method and conditions named. Binding seen in cells or lysates may run through a third protein. Some results given as binding are weak or reduced against the parent protein; the word gives no strength.
T1: Drosha (mouse (endogenous in DG NSCs)) (UniProt Q5HZJ0)
T1 sequence: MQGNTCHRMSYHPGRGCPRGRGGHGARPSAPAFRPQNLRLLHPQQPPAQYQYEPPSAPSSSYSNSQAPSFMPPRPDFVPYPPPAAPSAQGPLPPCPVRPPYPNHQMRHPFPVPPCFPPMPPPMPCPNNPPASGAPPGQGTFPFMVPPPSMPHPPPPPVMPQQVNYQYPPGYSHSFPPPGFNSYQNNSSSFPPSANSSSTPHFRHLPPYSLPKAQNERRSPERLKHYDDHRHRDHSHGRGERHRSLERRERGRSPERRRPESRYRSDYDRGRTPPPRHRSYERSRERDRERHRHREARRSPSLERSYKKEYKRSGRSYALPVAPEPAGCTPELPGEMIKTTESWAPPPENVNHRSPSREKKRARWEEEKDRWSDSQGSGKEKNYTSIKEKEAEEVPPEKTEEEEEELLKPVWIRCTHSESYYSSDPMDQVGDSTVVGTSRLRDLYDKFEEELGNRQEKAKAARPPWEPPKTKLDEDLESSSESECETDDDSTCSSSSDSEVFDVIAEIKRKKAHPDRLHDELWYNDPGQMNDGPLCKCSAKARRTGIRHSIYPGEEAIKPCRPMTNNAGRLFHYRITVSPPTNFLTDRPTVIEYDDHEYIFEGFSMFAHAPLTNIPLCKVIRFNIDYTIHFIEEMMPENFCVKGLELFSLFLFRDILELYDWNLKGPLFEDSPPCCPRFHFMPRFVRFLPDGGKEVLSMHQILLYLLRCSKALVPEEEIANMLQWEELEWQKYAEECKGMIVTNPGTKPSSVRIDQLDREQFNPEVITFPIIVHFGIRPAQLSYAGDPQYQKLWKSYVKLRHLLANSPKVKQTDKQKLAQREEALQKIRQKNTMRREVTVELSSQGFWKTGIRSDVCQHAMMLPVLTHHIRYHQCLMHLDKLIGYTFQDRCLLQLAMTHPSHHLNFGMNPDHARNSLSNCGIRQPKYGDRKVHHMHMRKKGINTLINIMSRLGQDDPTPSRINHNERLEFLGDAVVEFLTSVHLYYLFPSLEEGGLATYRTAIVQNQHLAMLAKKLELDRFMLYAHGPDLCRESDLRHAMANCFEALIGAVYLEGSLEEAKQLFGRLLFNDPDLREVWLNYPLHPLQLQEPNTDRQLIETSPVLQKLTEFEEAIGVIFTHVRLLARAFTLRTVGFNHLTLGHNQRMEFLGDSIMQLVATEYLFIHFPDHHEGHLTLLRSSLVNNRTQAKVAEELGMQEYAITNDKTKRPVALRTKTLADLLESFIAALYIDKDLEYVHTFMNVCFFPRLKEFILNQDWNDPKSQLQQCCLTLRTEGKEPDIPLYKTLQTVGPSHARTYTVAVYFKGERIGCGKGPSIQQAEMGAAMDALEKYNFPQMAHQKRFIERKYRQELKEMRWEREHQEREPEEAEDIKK

By UniProt entry, the sequences of proteins in these tests, tags left out. Where a name states a change or a piece, a line headed by the entry shows the natural chain unless it says otherwise.
UniProt D3YXK2, whole entry: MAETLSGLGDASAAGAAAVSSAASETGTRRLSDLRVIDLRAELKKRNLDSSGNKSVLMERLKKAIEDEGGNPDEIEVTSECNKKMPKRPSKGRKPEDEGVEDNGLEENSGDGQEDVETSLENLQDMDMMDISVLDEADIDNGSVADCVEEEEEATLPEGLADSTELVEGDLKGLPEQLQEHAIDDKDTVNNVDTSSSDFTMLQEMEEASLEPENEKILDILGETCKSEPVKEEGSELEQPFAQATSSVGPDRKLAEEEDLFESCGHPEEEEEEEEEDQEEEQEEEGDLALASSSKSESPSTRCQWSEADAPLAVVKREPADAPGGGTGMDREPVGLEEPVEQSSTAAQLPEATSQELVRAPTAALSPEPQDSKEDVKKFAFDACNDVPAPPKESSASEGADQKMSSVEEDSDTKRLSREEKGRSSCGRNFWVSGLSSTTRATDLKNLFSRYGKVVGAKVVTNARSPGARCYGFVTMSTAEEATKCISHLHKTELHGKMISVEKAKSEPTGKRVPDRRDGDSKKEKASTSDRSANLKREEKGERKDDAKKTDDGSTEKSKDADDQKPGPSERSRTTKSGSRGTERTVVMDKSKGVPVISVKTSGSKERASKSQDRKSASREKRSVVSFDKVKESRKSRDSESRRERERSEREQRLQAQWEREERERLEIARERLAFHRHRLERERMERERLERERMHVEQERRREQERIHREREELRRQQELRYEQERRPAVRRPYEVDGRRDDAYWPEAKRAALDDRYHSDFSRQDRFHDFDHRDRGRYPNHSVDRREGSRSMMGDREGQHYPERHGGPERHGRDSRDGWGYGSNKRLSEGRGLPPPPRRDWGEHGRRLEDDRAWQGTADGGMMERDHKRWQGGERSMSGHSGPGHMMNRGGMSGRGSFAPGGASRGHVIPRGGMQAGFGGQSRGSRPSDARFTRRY

T2: Drosha (mouse (endogenous in N2A)) (UniProt Q5HZJ0)
T2 sequence: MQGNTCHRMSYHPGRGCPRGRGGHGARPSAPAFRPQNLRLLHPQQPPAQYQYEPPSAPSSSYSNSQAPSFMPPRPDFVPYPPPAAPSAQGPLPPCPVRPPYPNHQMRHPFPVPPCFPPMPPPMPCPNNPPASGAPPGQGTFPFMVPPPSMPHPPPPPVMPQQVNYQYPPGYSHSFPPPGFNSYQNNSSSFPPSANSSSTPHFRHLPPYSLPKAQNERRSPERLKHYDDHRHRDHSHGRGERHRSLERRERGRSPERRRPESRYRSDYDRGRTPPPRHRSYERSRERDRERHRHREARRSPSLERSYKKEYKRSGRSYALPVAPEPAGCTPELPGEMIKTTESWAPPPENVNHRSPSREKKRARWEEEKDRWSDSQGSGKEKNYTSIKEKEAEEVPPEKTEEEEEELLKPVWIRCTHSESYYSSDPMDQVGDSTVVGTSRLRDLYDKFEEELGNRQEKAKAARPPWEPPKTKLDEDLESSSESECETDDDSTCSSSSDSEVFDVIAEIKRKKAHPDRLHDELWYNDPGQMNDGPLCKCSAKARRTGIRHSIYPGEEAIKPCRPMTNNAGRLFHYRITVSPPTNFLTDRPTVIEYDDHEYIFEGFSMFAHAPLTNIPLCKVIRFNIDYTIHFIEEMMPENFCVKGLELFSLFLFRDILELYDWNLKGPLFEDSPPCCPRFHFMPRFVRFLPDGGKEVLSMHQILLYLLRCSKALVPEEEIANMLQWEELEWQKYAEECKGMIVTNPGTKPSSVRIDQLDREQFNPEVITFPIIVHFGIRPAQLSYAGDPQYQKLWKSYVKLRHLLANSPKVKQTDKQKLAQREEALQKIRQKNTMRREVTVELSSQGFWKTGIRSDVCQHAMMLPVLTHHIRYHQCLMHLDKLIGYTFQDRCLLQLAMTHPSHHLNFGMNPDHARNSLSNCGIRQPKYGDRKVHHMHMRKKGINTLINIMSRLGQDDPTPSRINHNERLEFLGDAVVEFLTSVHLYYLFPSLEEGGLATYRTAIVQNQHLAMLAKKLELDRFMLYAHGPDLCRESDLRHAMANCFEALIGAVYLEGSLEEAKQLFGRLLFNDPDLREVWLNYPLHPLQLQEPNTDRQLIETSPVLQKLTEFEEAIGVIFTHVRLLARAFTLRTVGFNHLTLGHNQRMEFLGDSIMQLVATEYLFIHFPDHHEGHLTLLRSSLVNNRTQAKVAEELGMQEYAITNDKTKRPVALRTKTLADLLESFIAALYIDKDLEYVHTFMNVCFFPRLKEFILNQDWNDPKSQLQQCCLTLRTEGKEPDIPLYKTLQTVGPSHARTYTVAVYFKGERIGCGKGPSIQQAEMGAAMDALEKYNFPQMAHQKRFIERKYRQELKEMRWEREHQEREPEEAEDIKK


Experiments:
Experiment in all cases: co-IP
[1] = biological target: Scaffold Attachment Factor B1 (Safb1) (mouse (endogenous in DG NSCs)) (UniProt D3YXK2)
[2] = biological target: T1, Drosha (mouse (endogenous in DG NSCs))
[3] = biological target: T2, Drosha (mouse (endogenous in N2A))

| binding [1] | binding [2] | binding [3] | Molecule |
| --- | --- | --- | --- |
| no binding | no binding | – | PKC-α (from UniProt P20444 1-672) (enzyme) |
| – | – | binds | Safb1 (from UniProt D3YXK2 1-937) |
| – | – | binds | Safb1-HA (from UniProt D3YXK2 1-937) |
| – | binds | – | Scaffold Attachment Factor B1 (Safb1) (from UniProt D3YXK2 1-937) |
| binds | – | – | Drosha (enzyme, UniProt Q5HZJ0 1-1373) MQGNTCHRMSYHPGRGCPRGRGGHGARPSAPAFRPQNLRLLHPQQPPAQYQYEPPSAPSSSYSNSQAPSFMPPRPDFVPYPPPAAPSAQGPLPPCPVRPPYPNHQMRHPFPVPPCFPPMPPPMPCPNNPPASGAPPGQGTFPFMVPPPSMPHPPPPPVMPQQVNYQYPPGYSHSFPPPGFNSYQNNSSSFPPSANSSSTPHFRHLPPYSLPKAQNERRSPERLKHYDDHRHRDHSHGRGERHRSLERRERGRSPERRRPESRYRSDYDRGRTPPPRHRSYERSRERDRERHRHREARRSPSLERSYKKEYKRSGRSYALPVAPEPAGCTPELPGEMIKTTESWAPPPENVNHRSPSREKKRARWEEEKDRWSDSQGSGKEKNYTSIKEKEAEEVPPEKTEEEEEELLKPVWIRCTHSESYYSSDPMDQVGDSTVVGTSRLRDLYDKFEEELGNRQEKAKAARPPWEPPKTKLDEDLESSSESECETDDDSTCSSSSDSEVFDVIAEIKRKKAHPDRLHDELWYNDPGQMNDGPLCKCSAKARRTGIRHSIYPGEEAIKPCRPMTNNAGRLFHYRITVSPPTNFLTDRPTVIEYDDHEYIFEGFSMFAHAPLTNIPLCKVIRFNIDYTIHFIEEMMPENFCVKGLELFSLFLFRDILELYDWNLKGPLFEDSPPCCPRFHFMPRFVRFLPDGGKEVLSMHQILLYLLRCSKALVPEEEIANMLQWEELEWQKYAEECKGMIVTNPGTKPSSVRIDQLDREQFNPEVITFPIIVHFGIRPAQLSYAGDPQYQKLWKSYVKLRHLLANSPKVKQTDKQKLAQREEALQKIRQKNTMRREVTVELSSQGFWKTGIRSDVCQHAMMLPVLTHHIRYHQCLMHLDKLIGYTFQDRCLLQLAMTHPSHHLNFGMNPDHARNSLSNCGIRQPKYGDRKVHHMHMRKKGINTLINIMSRLGQDDPTPSRINHNERLEFLGDAVVEFLTSVHLYYLFPSLEEGGLATYRTAIVQNQHLAMLAKKLELDRFMLYAHGPDLCRESDLRHAMANCFEALIGAVYLEGSLEEAKQLFGRLLFNDPDLREVWLNYPLHPLQLQEPNTDRQLIETSPVLQKLTEFEEAIGVIFTHVRLLARAFTLRTVGFNHLTLGHNQRMEFLGDSIMQLVATEYLFIHFPDHHEGHLTLLRSSLVNNRTQAKVAEELGMQEYAITNDKTKRPVALRTKTLADLLESFIAALYIDKDLEYVHTFMNVCFFPRLKEFILNQDWNDPKSQLQQCCLTLRTEGKEPDIPLYKTLQTVGPSHARTYTVAVYFKGERIGCGKGPSIQQAEMGAAMDALEKYNFPQMAHQKRFIERKYRQELKEMRWEREHQEREPEEAEDIKK |
